Source: PubChem BioAssay AID588590 (National Center for Advancing Translational Sciences (NCATS), 2011)
Among all 390,000 compounds or so, about 4,000 (1%) were called active. The inconclusive results got no clear call from the source; some entries with a clear call stand among them for comparison. Calls come from the whole dose curve; as a rule, active = well fitted inhibition curve with a large enough effect; inconclusive = small, poorly fitted or top-dose-only effect, or another doubt; inactive = no such curve, though single readings can be large or run the other way. Where the call is inconclusive, the potency comes from a doubtful curve fit.
Potency is the fitted concentration of half-maximal effect.

Sequences of proteins named here, by UniProt entry; tags and fusion partners are left off. A change or cut given only in a name is not applied to a line headed by its entry.
UniProt Q9UNA4: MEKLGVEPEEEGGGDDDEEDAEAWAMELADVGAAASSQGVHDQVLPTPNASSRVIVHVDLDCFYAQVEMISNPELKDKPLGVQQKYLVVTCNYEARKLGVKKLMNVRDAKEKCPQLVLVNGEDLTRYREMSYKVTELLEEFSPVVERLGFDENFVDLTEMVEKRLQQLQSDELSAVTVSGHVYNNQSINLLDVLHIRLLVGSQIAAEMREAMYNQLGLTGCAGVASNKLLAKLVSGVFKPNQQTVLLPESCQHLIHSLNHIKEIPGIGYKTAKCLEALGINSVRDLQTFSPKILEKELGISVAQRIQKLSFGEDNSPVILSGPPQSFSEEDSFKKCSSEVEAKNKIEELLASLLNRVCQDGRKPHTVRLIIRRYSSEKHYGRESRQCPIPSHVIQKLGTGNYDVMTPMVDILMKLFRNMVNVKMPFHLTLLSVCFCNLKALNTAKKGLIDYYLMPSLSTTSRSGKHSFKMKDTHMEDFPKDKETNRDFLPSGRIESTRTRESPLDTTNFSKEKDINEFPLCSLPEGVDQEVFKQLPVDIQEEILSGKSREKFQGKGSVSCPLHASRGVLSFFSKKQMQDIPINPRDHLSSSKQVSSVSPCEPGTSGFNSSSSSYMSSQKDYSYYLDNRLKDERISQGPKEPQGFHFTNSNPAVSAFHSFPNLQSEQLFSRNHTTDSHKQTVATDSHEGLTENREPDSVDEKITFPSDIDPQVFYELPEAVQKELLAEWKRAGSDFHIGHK

The compounds below were run against DNA polymerase iota (Homo sapiens) (UniProt Q9UNA4) (assay: qHTS for Inhibitors of Polymerase Iota). Details: Pol iota fluorescent replication assay, 10 min; series mostly up to 115 µM; activity, negative = inhibition: at the top concentration.
In short: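 Pol iota at 10 nM preincubated 15 min with compounds at room temperature; reaction started with fluorescent substrate, 50 nM final. Fluorescence read kinetically at 0 and 10 min; buffer-only wells as negative control.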
For `Cc1c(Cl)cnc(NC(=O)COC(=O)/C=C/c2ccco2)c1Cl`, the Potency was active: 22.4 µM.
For `CC1CCN(c2ccc(C(=O)O)cc2N)CC1`, the Potency was inconclusive: 25.1 µM [inhibitor, single point].
With `COC(=O)CCCC1=CC2=CC(=O)C(C)(OC(=O)c3cccs3)C(=O)C2=CN1CCCOC(C)C` (stereo not drawn) the Potency was active: 25.1 µM.
`CCCCC(=O)N1C/C=C\C(c2ccc(OC)cc2)N(Cc2ccc(F)cc2)C(=O)C1Cc1ccccc1` (stereo not drawn) was tested, and the “activity, negative = inhibition” value was inactive: 1.17%.
For `Cn1cccc1-c1cc(C(=O)N/N=C/c2cc(Br)ccc2O)[nH]n1`, the “activity, negative = inhibition” value was inactive: 3.66%.
For `COc1ccc(C(=O)N=c2nc(-c3ccccc3)n(-c3ccccc3)s2)cc1`, the “activity, negative = inhibition” value was inactive: 11.3%.
With `COc1ccc(OC)c(NC(=O)CCc2c(C)nc3c(c(C)nn3C(C)(C)C)c2C)c1` the “activity, negative = inhibition” value was inactive: 23.3%.
With `Cc1cc(C)c2c(CC(=O)Nc3c(C(=O)c4ccc(F)cc4)oc4ccccc34)coc2c1` the “activity, negative = inhibition” value was inactive: 27.6%.
With `COc1cc(C(C)=O)ccc1OCC(O)Cn1nc(C)c(Br)c1C` (stereo not drawn) the “activity, negative = inhibition” value was inactive: 23%.
With `C[C@]12c3[nH]c4cc(-c5ccco5)ccc4c3CCN1C(=O)[C@@H](CC(=O)NCCc1ccccn1)C[C@@H]2C(=O)N1CCCCC1` the Potency was inconclusive: 89.1 µM [inhibitor, partial curve, poor fit].
With `O=C(Nc1ccc2c(c1)CCC2)c1cnn2c1NC(=C1CC1)C=C2C(F)F` the “activity, negative = inhibition” value was inactive: -9.86%.
With `COc1ccc2[nH]c3c(c2c1)CCNC3(C)CCc1ccc(Cl)nc1` (stereo not drawn) the “activity, negative = inhibition” value was inactive: -28.4%.
In the case of `Cc1nnn(-c2nonc2N)c1C(=O)N/N=C/c1ccccc1O`, the Potency is reported as inconclusive: 89.1 µM [inhibitor, single point].
In the case of `Cc1cccc(N2C(=O)CS/C2=N\NC(=O)c2ccc(Br)cc2)c1C`, the Potency is reported as inconclusive: 79.4 µM [inhibitor, partial curve, poor fit].
For `O=C(O)CCN1C(=O)CC(N2C(=O)/C(=C/c3ccc(Cl)cc3)SC2=S)C1=O` (stereo not drawn), the Potency was inconclusive: 31.6 µM [inhibitor, partial curve, poor fit].
In the case of `Cc1cn(C)c(CC(=O)N2CCN(c3ccc(F)cc3)CC2)c1C(=O)O`, the “activity, negative = inhibition” value is reported as inactive: -9.5%.
`CCC[n+]1c(C)sc2c3c(ccc21)CCCC3` was tested, and the “activity, negative = inhibition” value was inactive: 4.32%.
For `O=C(c1ccc2c(c1)OCO2)N1CCC2(CC1)Oc1ccc(F)cc1C(=O)C21CC(c2ccc(Cl)cc2)=NO1` (stereo not drawn), the Potency was inconclusive: 14.1 µM [inhibitor, partial curve, poor fit].
`COc1c(OC(C)=O)ccc(/C=C/c2ccc3cccc(OC)c3n2)c1[N+](=O)[O-]` was tested, and the Potency was inconclusive: 50.1 µM [inhibitor, partial curve].
In the case of `COc1cc(NC(=O)c2cc3nc(-c4ccc(C)cc4)cc(C(F)(F)F)n3n2)cc(OC)c1OC`, the “activity, negative = inhibition” value is reported as inactive: 4.6%.
For `O=C1CC(=O)N(Cc2ccco2)C(=O)N1`, the Potency was active: 3.16 µM.
With `Cc1nnc(Sc2cc(NCCO)c([N+](=O)[O-])c3nonc23)s1` the Potency was inconclusive: 15.8 µM [inhibitor, full curve].
In the case of `C#CCOCCOCCOCCNc1nc(N2CCN(C(=O)C([C@@H](C)O)n3cc([C@@H](N)CCCCN)nn3)CC2)nc(N2CCN(C(=O)[C@H](CCCCN)n3cc(CN)nn3)CC2)n1` (stereo partly drawn), the Potency is reported as inconclusive: 35.5 µM [inhibitor, single point].
For `O=C(Nc1cc(-c2nc3cc(Cl)ccc3o2)ccc1Cl)c1cccc2ccccc12`, the Potency was inconclusive: 3.98 µM [inhibitor, partial curve, poor fit].
With `COc1ccc(OCC(O)CN2CCNCC2)cc1` (stereo not drawn) the “activity, negative = inhibition” value was inactive: 142%.
`C[C@@H]1C[C@@H]2OC(=O)[C@]3(C)[C@H]2[C@@H](OC3(C)O)[C@]2(C)C(=O)C=C[C@H]12` (stereo partly drawn) was tested, and the Potency was inconclusive: 50.1 µM [inhibitor, partial curve, poor fit].
With `Cc1ccc(C(C2C(=O)CC(C)(C)CC2=O)C2C(=O)CC(C)(C)CC2=O)s1` the Potency was inconclusive: 22.4 µM [inhibitor, partial curve, poor fit].
`COC(=O)c1cc(C(=O)Nc2ccc(Cl)cn2)cc([N+](=O)[O-])c1` was tested, and the Potency was inconclusive: 4.47 µM [inhibitor, full curve, poor fit].
For `CC(=O)c1cccc(NC(=O)Cn2c(=O)oc3cc(S(=O)(=O)NCc4ccccc4)ccc32)c1`, the Potency was inconclusive: 89.1 µM [inhibitor, single point].
With `COc1ccc(NC(=O)CSc2nnc(-c3ccccc3)n2Cc2ccco2)cc1OC` the Potency was inconclusive: 89.1 µM [inhibitor, single point].
`COC(=O)N/N=C/c1cc(OC)c(O)c([N+](=O)[O-])c1` was tested, and the Potency was inconclusive: 39.8 µM [inhibitor, single point].
For `C(=C\c1cccc2ccccc12)/c1nnc(-c2cccs2)o1`, the “activity, negative = inhibition” value was inactive: -20.1%.
In the case of `O=[N+]([O-])c1ccccc1/C=C/C=N/n1c(-c2cc(-c3ccccc3)n[nH]2)n[nH]c1=S`, the Potency is reported as inconclusive: 22.4 µM [inhibitor, partial curve, poor fit].
In the case of `COc1cc(NC(=O)CSc2nnc3c(n2)[nH]c2ccc(S(=O)(=O)NC(C)C)cc23)cc(OC)c1OC`, the Potency is reported as active: 44.7 µM.
`CCOc1ccc(/C=C/C(=O)c2cc(Br)ccc(=O)c2O)cc1` was tested, and the Potency was inconclusive: 25.1 µM [inhibitor, full curve, poor fit].
For `O=C(Cn1nnc(-c2ccccc2)n1)NNC(=O)c1ccc(Br)cc1`, the Potency was inconclusive: 3.55 µM [inhibitor, partial curve, poor fit].
In the case of `Cc1nc([N+](=O)[O-])c(Sc2nc3ccccc3n2C)n1Cc1ccccc1`, the Potency is reported as inconclusive: 22.4 µM [inhibitor, full curve, poor fit].
`CN1/C(=C\C(=O)COC(=O)CNC(=O)c2ccc3ccccc3c2)C(C)(C)c2ccccc21` was tested, and the Potency was inconclusive: 56.2 µM [inhibitor, partial curve, poor fit].
In the case of `COc1cc(OC)cc(C(=O)NCC(=O)N2CCN(c3ccc(O)cc3)CC2)c1`, the Potency is reported as inconclusive: 50.1 µM [inhibitor, partial curve, poor fit].
`CCc1cc(=O)oc2cc3occ(-c4ccc(OC)c(F)c4)c3cc12` was tested, and the Potency was inconclusive: 17.8 µM [inhibitor, partial curve].
With `CSC1=C(C#N)C(c2ccc(C(C)C)cc2)CC(=O)N1` (stereo not drawn) the Potency was inconclusive: 35.5 µM [inhibitor, single point].
With `CC(OCC(O)CN(C)Cc1nc2ccccc2c(=O)[nH]1)c1ccc(Cl)cc1` (stereo not drawn) the Potency was inconclusive: 3.16 µM [inhibitor, partial curve, poor fit].
In the case of `COC(=O)c1ccc(NC(=O)CSc2nnc(CNc3ccc(F)cc3)n2C)cc1`, the Potency is reported as inconclusive: 112 µM [inhibitor, partial curve, poor fit].
`O=C1/C(=C\c2ccc(Br)o2)Cc2ccccc21` was tested, and the Potency was inconclusive: 17.8 µM [inhibitor, full curve, poor fit].
With `CCc1cc(C(=O)Nc2cc(S(=O)(=O)N3CCOCC3)ccc2N2CCN(CC)CC2)sc1C` the “activity, negative = inhibition” value was inactive: 3.88%.
For `O=C(Nc1ccccc1N1CCCCC1)c1ccc2nccnc2c1`, the Potency was inconclusive: 10 µM [inhibitor, single point].
With `C=CCn1c(SCC(=O)NC2CCCC2)nc2scc(-c3ccco3)c2c1=O` the Potency was inconclusive: 3.55 µM [inhibitor, full curve].
`CCN(CC)CCCN1C(=O)C(=O)/C(=C(/O)c2ccc(C)cc2)C1c1ccccn1` (stereo not drawn) was tested, and the Potency was inconclusive: 22.4 µM [inhibitor, single point].
For `Cc1cccc(C)c1OCCN1CCOCC1`, the Potency was inconclusive: 79.4 µM [inhibitor, single point].
For `O=C(CSCc1ccc(Cl)cc1)N1CCN(Cc2ccc3c(c2)OCO3)CC1`, the Potency was inconclusive: 39.8 µM [inhibitor, single point].
For `O=C(O)c1cc(NS(=O)(=O)c2ccc3ccccc3c2)ccc1O`, the Potency was inconclusive: 56.2 µM [inhibitor, single point].
In the case of `Cc1nn(Cc2c(F)c(F)c(F)c(F)c2F)c(C)c1NC(=O)c1cccc(COc2ccc(Cl)cc2)c1`, the Potency is reported as inconclusive: 20 µM [inhibitor, partial curve, poor fit].
In the case of `Cc1cc(C)cc(-n2ncc3c2CCCC3NC(=O)CN2CCCC2=O)c1` (stereo not drawn), the Potency is reported as inconclusive: 100 µM [inhibitor, partial curve, poor fit].
With `O=C(CSc1nnnn1-c1ccccc1)CSc1nnnn1-c1ccccc1` the Potency was inconclusive: 20 µM [inhibitor, full curve, poor fit].
`CCC(=O)Nc1nc2ccc3nc(C)sc3c2s1` was tested, and the Potency was inconclusive: 39.8 µM [inhibitor, single point].
In the case of `Cc1ccc2cc(/C=N/Nc3ccc(C(=O)O)cc3)c(Cl)nc2c1`, the Potency is reported as inconclusive: 17.8 µM [inhibitor, single point].
For `CCCN1CNc2c(c(=O)[nH]c(=S)n2CCc2ccccn2)C1`, the “activity, negative = inhibition” value was inactive: 14.8%.
`COC(=O)c1sccc1NC(=O)Cn1cnc2c1c(=O)n(C)c(=O)n2C` was tested, and the Potency was inconclusive: 100 µM [inhibitor, single point].
With `COc1cc(-c2ccccc2)[nH]c(=S)n1` the Potency was inconclusive: 10 µM [inhibitor, partial curve, poor fit].
With `CCOc1ccc(N=C2NC(=O)S/C2=C\c2ccc(Cl)cc2)cc1` the Potency was inconclusive: 2 µM [inhibitor, partial curve, poor fit].
For `O=C(O)CCC(C(=O)O)n1c(O)c(C2=c3ccccc3=NC2=O)sc1=S` (stereo not drawn), the Potency was inconclusive: 8.91 µM [inhibitor, partial curve, poor fit].
With `CCOc1ccc(-n2c(=O)c3c(C)c(C)sc3n(CC(=O)Nc3ccc(CC)cc3)c2=O)cc1` the “activity, negative = inhibition” value was inactive: -24.2%.
In the case of `O=C1C(Cc2ccccc2)Nc2ncnc(N3CCN(c4ccccc4)CC3)c2N1Cc1ccccc1` (stereo not drawn), the Potency is reported as inconclusive: 35.5 µM [inhibitor, partial curve].
